Consider 19 molecules from PMC9170682.

Amino acid sequences for entries named in this document (tags omitted). A change or cut given only in a name is not applied to a line headed by its entry.
UniProt Q9FLP2: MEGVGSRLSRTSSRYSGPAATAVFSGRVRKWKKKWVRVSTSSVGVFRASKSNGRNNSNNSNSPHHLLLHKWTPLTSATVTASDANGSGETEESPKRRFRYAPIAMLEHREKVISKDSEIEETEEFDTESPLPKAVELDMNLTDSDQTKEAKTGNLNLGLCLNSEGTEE
UniProt Q9C6P8: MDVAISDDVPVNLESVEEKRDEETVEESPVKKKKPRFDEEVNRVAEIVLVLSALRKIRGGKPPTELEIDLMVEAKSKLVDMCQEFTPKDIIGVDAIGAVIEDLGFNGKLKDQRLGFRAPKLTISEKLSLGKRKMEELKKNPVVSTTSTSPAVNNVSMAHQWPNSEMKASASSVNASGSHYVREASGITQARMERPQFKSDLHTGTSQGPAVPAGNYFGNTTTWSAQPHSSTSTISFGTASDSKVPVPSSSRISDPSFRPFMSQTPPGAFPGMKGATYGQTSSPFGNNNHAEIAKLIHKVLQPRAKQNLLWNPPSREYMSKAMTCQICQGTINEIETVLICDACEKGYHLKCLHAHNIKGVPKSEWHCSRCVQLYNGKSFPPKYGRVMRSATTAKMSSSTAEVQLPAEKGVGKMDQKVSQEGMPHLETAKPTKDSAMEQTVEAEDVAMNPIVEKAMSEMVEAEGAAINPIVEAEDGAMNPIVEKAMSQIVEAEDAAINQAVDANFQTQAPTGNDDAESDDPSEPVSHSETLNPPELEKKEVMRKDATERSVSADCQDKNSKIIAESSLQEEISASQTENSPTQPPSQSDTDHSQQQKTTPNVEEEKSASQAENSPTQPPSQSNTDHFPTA
UniProt Q9LPJ1: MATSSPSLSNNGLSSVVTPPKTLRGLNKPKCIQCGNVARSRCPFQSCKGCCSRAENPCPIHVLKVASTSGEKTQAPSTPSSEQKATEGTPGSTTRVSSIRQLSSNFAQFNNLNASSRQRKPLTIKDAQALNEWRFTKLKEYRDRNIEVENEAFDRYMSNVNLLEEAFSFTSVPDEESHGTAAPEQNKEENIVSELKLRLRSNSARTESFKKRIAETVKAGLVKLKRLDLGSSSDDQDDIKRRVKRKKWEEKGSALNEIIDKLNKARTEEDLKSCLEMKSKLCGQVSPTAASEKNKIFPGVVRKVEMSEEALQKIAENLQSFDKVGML
UniProt F4IHS2: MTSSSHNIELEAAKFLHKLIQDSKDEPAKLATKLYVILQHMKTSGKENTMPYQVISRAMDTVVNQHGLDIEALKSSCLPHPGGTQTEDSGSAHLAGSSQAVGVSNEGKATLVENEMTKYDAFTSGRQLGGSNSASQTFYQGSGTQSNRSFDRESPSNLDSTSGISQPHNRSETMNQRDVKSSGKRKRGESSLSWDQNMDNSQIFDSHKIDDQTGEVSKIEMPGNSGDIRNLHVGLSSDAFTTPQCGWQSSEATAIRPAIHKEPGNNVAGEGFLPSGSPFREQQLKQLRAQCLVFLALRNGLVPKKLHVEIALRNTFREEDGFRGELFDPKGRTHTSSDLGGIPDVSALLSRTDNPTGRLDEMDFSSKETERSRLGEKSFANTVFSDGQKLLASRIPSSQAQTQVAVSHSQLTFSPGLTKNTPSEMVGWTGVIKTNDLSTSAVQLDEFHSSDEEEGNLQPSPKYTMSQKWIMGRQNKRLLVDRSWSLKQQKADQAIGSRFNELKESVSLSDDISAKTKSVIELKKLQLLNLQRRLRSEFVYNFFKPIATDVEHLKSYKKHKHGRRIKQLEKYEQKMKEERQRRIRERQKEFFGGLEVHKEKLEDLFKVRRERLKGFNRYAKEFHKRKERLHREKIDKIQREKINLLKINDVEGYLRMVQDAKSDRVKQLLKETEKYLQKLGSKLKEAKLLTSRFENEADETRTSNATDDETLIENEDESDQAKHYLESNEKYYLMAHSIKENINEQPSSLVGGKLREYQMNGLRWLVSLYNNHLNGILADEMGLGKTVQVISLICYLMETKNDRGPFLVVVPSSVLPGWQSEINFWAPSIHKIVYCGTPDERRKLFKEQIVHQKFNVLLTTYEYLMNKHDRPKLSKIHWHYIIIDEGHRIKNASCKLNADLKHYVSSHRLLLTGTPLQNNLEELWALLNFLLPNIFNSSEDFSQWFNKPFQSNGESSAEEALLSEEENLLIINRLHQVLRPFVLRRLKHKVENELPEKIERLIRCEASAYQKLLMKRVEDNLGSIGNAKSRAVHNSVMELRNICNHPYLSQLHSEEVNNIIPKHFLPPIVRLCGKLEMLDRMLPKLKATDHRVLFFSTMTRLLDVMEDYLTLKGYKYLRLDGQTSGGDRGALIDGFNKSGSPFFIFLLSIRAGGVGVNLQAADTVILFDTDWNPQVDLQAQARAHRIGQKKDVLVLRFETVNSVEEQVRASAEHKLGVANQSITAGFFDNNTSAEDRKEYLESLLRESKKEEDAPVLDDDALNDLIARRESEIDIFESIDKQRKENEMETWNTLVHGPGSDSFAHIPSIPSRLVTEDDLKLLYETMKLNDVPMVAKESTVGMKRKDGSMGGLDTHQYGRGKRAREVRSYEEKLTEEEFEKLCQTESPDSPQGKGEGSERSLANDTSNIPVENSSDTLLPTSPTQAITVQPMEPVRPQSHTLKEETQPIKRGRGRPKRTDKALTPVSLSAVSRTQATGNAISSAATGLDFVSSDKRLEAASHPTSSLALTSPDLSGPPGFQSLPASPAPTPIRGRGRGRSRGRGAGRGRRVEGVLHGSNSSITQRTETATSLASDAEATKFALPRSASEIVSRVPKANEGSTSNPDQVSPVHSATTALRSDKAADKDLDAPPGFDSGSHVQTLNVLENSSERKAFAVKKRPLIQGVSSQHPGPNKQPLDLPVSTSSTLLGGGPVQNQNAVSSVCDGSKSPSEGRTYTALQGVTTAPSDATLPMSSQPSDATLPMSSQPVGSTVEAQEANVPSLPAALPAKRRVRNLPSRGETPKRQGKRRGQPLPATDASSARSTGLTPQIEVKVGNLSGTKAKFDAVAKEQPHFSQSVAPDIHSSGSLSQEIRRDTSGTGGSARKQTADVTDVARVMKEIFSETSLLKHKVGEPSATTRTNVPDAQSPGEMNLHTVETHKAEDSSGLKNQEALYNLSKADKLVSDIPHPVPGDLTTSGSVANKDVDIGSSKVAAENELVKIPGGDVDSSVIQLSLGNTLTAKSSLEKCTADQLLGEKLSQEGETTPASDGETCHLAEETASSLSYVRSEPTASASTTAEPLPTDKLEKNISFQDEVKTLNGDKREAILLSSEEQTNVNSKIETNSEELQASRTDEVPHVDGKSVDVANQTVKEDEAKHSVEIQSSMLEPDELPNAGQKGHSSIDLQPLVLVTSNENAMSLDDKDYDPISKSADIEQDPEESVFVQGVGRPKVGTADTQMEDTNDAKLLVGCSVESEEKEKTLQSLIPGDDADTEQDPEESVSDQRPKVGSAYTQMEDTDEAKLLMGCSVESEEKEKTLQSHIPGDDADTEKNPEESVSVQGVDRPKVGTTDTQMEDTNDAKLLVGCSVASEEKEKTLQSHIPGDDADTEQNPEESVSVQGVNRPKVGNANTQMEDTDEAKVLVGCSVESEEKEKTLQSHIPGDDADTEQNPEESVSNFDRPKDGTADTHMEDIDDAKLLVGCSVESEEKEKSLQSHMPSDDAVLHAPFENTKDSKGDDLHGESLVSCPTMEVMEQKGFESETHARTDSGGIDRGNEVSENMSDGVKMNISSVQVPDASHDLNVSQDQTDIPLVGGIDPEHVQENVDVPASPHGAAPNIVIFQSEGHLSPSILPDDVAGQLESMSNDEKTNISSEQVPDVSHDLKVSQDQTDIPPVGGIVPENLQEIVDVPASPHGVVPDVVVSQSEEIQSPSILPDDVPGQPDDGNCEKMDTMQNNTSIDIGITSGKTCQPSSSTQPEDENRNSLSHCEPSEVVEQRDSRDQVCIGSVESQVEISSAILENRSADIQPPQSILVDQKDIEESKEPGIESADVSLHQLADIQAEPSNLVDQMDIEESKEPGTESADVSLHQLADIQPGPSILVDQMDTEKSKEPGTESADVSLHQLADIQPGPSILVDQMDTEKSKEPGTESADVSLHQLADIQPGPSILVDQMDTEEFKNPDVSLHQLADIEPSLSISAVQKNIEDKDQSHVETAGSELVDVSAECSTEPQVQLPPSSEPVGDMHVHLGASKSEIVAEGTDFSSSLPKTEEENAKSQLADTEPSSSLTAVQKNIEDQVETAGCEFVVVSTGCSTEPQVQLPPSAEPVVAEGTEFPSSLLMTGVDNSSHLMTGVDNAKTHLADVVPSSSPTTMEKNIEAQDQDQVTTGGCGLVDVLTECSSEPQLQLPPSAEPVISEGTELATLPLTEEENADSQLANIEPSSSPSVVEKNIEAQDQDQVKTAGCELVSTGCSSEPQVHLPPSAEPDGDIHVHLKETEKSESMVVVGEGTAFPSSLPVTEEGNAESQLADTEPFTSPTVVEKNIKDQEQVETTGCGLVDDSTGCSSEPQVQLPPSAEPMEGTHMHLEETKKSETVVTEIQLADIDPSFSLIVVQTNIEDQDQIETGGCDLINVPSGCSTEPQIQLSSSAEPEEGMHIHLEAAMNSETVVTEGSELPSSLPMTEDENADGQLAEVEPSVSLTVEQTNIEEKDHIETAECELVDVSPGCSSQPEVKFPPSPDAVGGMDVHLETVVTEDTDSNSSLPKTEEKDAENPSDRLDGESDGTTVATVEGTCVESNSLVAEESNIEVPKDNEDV
UniProt F4IX81: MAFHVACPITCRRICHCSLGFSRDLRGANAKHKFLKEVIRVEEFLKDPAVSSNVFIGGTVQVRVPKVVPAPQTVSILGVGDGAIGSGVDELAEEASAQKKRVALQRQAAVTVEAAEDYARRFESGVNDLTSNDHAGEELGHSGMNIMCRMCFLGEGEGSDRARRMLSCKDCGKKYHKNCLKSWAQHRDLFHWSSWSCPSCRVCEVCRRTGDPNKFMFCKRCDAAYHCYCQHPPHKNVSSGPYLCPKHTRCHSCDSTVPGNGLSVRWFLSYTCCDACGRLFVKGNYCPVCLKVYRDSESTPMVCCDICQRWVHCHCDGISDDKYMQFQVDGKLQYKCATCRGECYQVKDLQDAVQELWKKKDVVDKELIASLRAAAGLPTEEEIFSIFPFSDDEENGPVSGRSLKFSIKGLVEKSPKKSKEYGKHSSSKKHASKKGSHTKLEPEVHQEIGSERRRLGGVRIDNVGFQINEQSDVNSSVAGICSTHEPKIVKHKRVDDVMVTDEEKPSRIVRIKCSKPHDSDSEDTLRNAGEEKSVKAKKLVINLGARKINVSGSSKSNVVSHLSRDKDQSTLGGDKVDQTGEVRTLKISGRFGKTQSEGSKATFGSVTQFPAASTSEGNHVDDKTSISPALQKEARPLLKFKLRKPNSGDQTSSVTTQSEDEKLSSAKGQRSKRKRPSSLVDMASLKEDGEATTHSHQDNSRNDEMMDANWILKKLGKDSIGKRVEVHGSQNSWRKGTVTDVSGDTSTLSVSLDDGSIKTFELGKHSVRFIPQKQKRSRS

Like-named read-outs stand apart in the source and are kept apart here. These are yes or no findings as the source states them, for the method shown. Binding seen in cells or lysates may run through a third protein. A yes stands for co-enrichment or nearness to the bait. Other partners may have been found. For some of these results: No binding means not detected with the bait. Where a sequence is shown, tags or fusion partners need not be part of it.

Test in all cases: affinity purification with mass spectrometry; anti-FLAG M2 magnetic beads on extracts of 8 g inflorescences of TPF1-3xFLAG or SHH2-3xFLAG transgenic A. thaliana lines, Col-0 as control; IP buffer 50 mM Tris pH 7.6, 150 mM NaCl, 5 mM MgCl2, 10% glycerol, 0.1% NP40; 3 h at 4 °C; eluted with 3xFLAG peptide; LC-MS/MS, LFQ by MaxQuant; two independent experiments with two lines each
The target in experiment [1] is T1, SHH2-3xFLAG (A. thaliana) (UniProt Q8RWJ7).
T1 sequence: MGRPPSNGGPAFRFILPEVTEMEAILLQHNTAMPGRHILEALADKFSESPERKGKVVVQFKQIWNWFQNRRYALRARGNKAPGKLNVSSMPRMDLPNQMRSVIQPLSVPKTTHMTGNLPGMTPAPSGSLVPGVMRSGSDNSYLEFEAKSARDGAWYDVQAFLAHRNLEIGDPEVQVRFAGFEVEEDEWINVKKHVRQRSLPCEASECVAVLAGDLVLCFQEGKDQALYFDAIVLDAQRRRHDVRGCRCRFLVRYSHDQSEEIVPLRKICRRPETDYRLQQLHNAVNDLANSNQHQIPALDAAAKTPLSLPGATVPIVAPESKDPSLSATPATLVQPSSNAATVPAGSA

The target in experiment [2] is T2, TPF1-3xFLAG (A. thaliana) (UniProt F4J5R1).
T2 sequence: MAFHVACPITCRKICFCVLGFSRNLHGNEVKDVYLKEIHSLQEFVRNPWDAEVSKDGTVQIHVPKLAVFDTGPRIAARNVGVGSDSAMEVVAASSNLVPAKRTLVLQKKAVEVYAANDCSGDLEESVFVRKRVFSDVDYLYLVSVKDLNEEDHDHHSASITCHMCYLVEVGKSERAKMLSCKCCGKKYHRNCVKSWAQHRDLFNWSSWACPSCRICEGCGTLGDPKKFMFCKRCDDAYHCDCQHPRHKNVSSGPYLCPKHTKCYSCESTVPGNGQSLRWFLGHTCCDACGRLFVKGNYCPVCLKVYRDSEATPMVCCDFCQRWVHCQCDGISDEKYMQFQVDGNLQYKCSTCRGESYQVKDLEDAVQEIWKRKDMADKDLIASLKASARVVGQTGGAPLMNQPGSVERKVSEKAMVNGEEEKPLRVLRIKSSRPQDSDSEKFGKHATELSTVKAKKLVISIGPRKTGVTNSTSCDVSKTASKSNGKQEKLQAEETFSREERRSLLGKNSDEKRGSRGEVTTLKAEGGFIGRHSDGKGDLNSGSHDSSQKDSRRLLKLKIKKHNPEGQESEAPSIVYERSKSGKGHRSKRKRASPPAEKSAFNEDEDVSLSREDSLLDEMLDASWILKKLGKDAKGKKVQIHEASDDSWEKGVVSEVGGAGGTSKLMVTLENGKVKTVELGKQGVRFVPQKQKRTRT

Experiment [3] addresses T1, SHH2-3xFLAG (A. thaliana). This is another data set of the same source.
Experiment [4] deals with T2, TPF1-3xFLAG (A. thaliana). This is another data set of the same source.

On to BCL-domain homolog 1, for which the binding entry in experiment [1] and in experiment [2] was “binds” throughout.

For BDH2 (from UniProt Q9FLP2), the binding entry was “binds” in experiment [1] and “no binding” in experiment [2].

For the molecule “BRAHMA (BRM) ATPase (from UniProt Q6EVK6 1-2193)”, the binding result in experiment [2] is “no binding”.

Regarding BRD1, the binding result in experiment [1] and in experiment [2] was “no binding” in each case.

Take BRD2: the binding result in experiment [1] and in experiment [2] was “no binding” throughout.

As for BRD13, the binding entry in experiment [1] and in experiment [2] was “no binding” throughout.

For BRIP1, the binding result in experiment [1] and in experiment [2] was “no binding” in each case.

BRIP2: the binding result in experiment [1] and in experiment [2] was “no binding” each time.

With BROMODOMAIN 5, the binding entry in experiment [1] and in experiment [2] was “binds” each time.

As for ONE PHD FINGER 1 (from UniProt Q9C6P8), the binding result in experiment [1] and in experiment [2] was “binds” throughout.

Turning to “PLANT-SPECIFIC SWI/SNF-ASSOCIATED PROTEIN 1 (from UniProt Q9LPJ1)”, the binding entry in experiment [1] and in experiment [2] was “binds” each time.

As to SYD (from UniProt F4IHS2 1-3574), the binding entry in experiment [2] is recorded as “no binding”.

As to TPF2 (from UniProt F4IX81), the binding result in experiment [1] is reported as “binds”; in experiment [2] it was “no binding”.

B1: LFR (protein, UniProt Q9LS90 1-460)
chain: MQKRELGKSGGNSGGSSGPPAKRGRPFGSTSANSAAAAAAAAAADAMSPSALLGPSLLVHNSFVEQNNRRIVLALQSGLKSEVTWALNTLTLLSFKEKEDIRRDVMPLAKIAGLLDALLLIIDDWRDIALPKDLTRGTRVRTLGTNASVTGFGNEYDALASIQPPGSGIGSSAAEALGKKSTGKHQSSQWWMEEDGLFNLDDEGRSEKQMCAIAASNVIRNFSFMPDNEVVMAQHRHCLETVFQCIHDHMTEDEELVTNSLETIVNLAHLMDLRIFSSLKQSYININEKKAVQAVVGILNSSVKAWNCAAAELLGRLIINPDNEPFISPLIPQIHKRLIDLLSIQAVDAQAAAVGALYNLVEVNMDCRLKLASERWAVDRLLKVIKTPHPVPEVCRKAAMILENLVSEPQNRGLLLAYENAFAELLFQEGKYSDSFARILYELTARSNSRVASARGIWGM
In the case of B1, the binding result in experiment [3] and in experiment [4] was “binds” in each case.

B2: SWP73B (protein, UniProt Q9FMT4 1-534)
chain: MSGNNNNPQKPQGSAPLPFGNPGMASASVPGNQGFAQSHMAANFQAQFQFSQAQALAHAQAQSKVQAQLQAQLQAQGMTMNQAQGSPGIGGLGPSSPSLTTPGSLNMKRFQQKPPMRPPGAPASNNTISPMRTMELTPAARKKKQKLPEKSLQERVAAILPESALYTQLLEFESRVDAALTRKKVDIQEALKNPPCIQKTLRIYVFNSFANQNNTIPGNPNADPPTWTLKIIGRILEDGVDPDQPGFVQKANPLHPKFSSFFKRVTVSLDQRLYPENPLIIWENARSPAPQEGFEIKRKGNQEFAASIRLEMNYVPEKFKLSTALMDVLGIEVETRPRIIAAIWHYVKARKLQNPNDPSFFNCDAALQKVFGEEKLKFTMVSQKISHHLSPPPPIHLEHKIKLSGNNPAVSACYDVLVDVPFPIQRDLNNLLANAEKNKEIEACDEAICAAIRKIHEHRRRRAFFLGFSQSPVEFINALIESQSKDLKVVAGEASRNAERERRSDFFNQPWVEDAVIRYLNRRPAAGNDGPGSW
In the case of B2, the binding result in experiment [3] and in experiment [4] was “binds” each time.

B3: ARP7 (protein, UniProt Q8L4Y5 1-363)
chain: MEALVVDAGSKFLKAGAAIPDQSPAMIIPSQMKRMVDDGSSSADNPTTVFEDVTLDPIERGLIRDWDAMEDLLRYVVYTGLGWEEGNEGNILFTDPLCTPKAIREQLVQLMFETFNVSGFYASEQAVLSLYAVGRISGCTVDIGHGKIDIAPVLEGAVQHIASKRFELGGTELTKLFAQELGKTNPSMNLSMSDVEKLKEQYANCAEDEIAYKKTQNCEIEQHTLPDGQVISIGRERYSVGEALFQPSILGLEEHGIVEQLVRIISTVSSENHRQLLENTVLCGGTTSMTGFESRFQKEANLCSSAIRPTLVKPPEYMPENLGMYSAWVGGAILAKVVFPQNQHVTKADYDETGPSVVHRKCF
On to B3, for which the binding result in experiment [3] and in experiment [4] was “binds” in each case.

B4: SAWADEE HOMEODOMAIN HOMOLOG 2 (protein, UniProt Q8RWJ7 1-348)
chain: T1 sequence
In the case of B4, the binding result in experiment [4] is reported as “binds”.

B5: TRIPLE PHD FINGERS 1 (protein, UniProt F4J5R1 1-696)
chain: T2 sequence
On to B5, for which the binding result in experiment [3] is given as “binds”.

B6: BSH (protein, UniProt P93045 1-240)
chain: MKGLVSTGWKGPVKFRMPTAENLVPIRLDIQFEGQRYKDAFTWNPSDPDNEVVIFAKRTVKDLKLPYAFVTQIAQSIQSQLSDFRAYEGQDMYTGEKIIPIKLDLRVNHTLIKDQFLWDLNNFESDPEEFARTLCKDLGVEDPEVGPAVAFAIREQLYEIAIQSVASARESRLSKKGRRGSDHGSASKASGLSMDLMKLFSFKSSVVRKRKDLDVYEPVVDLLTSEEVDALEAREERHAR
With B6, the binding result in experiment [3] and in experiment [4] was “binds” in each case.
